{"source": "PubChem BioAssay AID602196 (INSERM, 2012)", "aim": "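Modifiers of cisplatin sensitivity in A549 cells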", "cells": "human A549 lung cancer cells", "knock-down reagent": "siRNA pair against human genes", "duration": "48 h transfection before cisplatin; time from cisplatin to read-out not stated", "challenge": "cisplatin at a dose killing half of control-siRNA cells; exact dose and duration not given", "detection": "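Shift in cisplatin death relative to control siRNA, from -50 (all cells die) to +50 (no cells die); siRNAs harmful on their own scored 0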", "reading the numbers": "two-siRNA summed score (-2 to +2): higher = both siRNAs protect from cisplatin killing; -2 means both sensitise", "call rule": "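Each siRNA scores 0 if harmful alone by LDH or WST-1, otherwise +1 if it reduces and -1 if it increases cisplatin killing; a gene is active when both siRNAs agree (sum +2 or -2)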", "meaning of the calls": "active = both siRNAs shift cisplatin killing the same way; inactive = no consistent shift, or siRNA harmful alone", "note": "In all, the deposit lists about 23,000 reagents; shown is an unselected part. Over the whole deposit, 455 (2%) got an active call. 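Active includes both protection and sensitisation; some change values fall well beyond the stated -50 to +50 range.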 A number with no mark means an inactive call. The numbers tell different reagents against one gene apart. Further read-outs or replicates are left out here. Not stated in the record: the amount of reagent."}
{"target":"LOC441395","reagent":1,"two-siRNA summed score (-2 to +2)":0}
{"target":"TPD52L3","reagent":1,"two-siRNA summed score (-2 to +2)":0}
{"target":"TPD52L3","reagent":2,"two-siRNA summed score (-2 to +2)":1}
{"target":"PRSS41","reagent":1,"two-siRNA summed score (-2 to +2)":1}
{"target":"KIAA1442","reagent":1,"two-siRNA summed score (-2 to +2)":0}
{"target":"SP6","reagent":1,"two-siRNA summed score (-2 to +2)":0}
{"target":"LOC391265","reagent":1,"two-siRNA summed score (-2 to +2)":0}
{"target":"DSG4","reagent":1,"two-siRNA summed score (-2 to +2)":0}
{"target":"LOC440389","reagent":1,"two-siRNA summed score (-2 to +2)":0}
{"target":"LOC401019","reagent":1,"two-siRNA summed score (-2 to +2)":0}
{"target":"ZNF639","reagent":1,"two-siRNA summed score (-2 to +2)":0}
{"target":"LHX2","reagent":1,"two-siRNA summed score (-2 to +2)":0}
{"target":"LOC388210 (retired record)","reagent":1,"two-siRNA summed score (-2 to +2)":-1}
{"target":"LOC441646","reagent":1,"two-siRNA summed score (-2 to +2)":1}
{"target":"MIR663AHG","reagent":1,"two-siRNA summed score (-2 to +2)":1}
{"target":"KRABD5","reagent":1,"two-siRNA summed score (-2 to +2)":0}
{"target":"LOC341098","reagent":1,"two-siRNA summed score (-2 to +2)":0}
{"target":"COL5A2","reagent":1,"two-siRNA summed score (-2 to +2)":0}
{"target":"PRICKLE1","reagent":1,"two-siRNA summed score (-2 to +2)":0}
{"target":"LOC402695","reagent":1,"two-siRNA summed score (-2 to +2)":0}

2 entries already listed, arranged by “two-siRNA summed score (-2 to +2)”, high to low:
{"target":"LHX2","reagent":1,"two-siRNA summed score (-2 to +2)":0}
{"target":"LOC388210 (retired record)","reagent":1,"two-siRNA summed score (-2 to +2)":-1}

Continued.
{"target":"LOC387917","reagent":1,"two-siRNA summed score (-2 to +2)":0}
{"target":"SLC7A6OS","reagent":1,"two-siRNA summed score (-2 to +2)":0}
{"target":"LOC387904","reagent":1,"two-siRNA summed score (-2 to +2)":0}
{"target":"RGS10","reagent":1,"two-siRNA summed score (-2 to +2)":-1}
{"target":"SLC39A7","reagent":1,"two-siRNA summed score (-2 to +2)":0}
{"target":"SPTAN1","reagent":1,"two-siRNA summed score (-2 to +2)":0}
{"target":"LOC442313","reagent":1,"two-siRNA summed score (-2 to +2)":0}
{"target":"VIRMA","reagent":1,"two-siRNA summed score (-2 to +2)":1}
{"target":"LOC389330","reagent":1,"two-siRNA summed score (-2 to +2)":1}
{"target":"GUCA2A","reagent":1,"two-siRNA summed score (-2 to +2)":0}
{"target":"SH3GLB1","reagent":1,"two-siRNA summed score (-2 to +2)":0}
